Experimental data published in PubChem BioAssay AID1688 (National Center for Advancing Translational Sciences (NCATS), 2009).
About 2,400 (1.1%) of roughly 220,000 compounds were called active. The inconclusive results got no clear call from the source; some entries with a clear call stand among them for comparison. The call rests on the fitted dose curve; in most records, active means well fitted inhibition curve with a large enough effect; inconclusive means small, poorly fitted or top-dose-only effect, or effect the other way; inactive means no such curve, though single readings can be large or run the other way. Where the call is inconclusive, the potency comes from a doubtful curve fit.

experiment: qHTS Multiplex Assay to Identify Dual Action Probes in a Cell Model of Huntington: Aggregate Formation (GFP); conditions: PC12 HttQ103-GFP aggregates, Acumen cytometry, 40 h; activity change, negative = inhibition: at 46.1 µM (top of the series) unless noted; further: nearly all actives have a fitted effect of over 60% in size
How it was run: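 PC12 cells with ecdysone-inducible HTT exon1 Q103-GFP, induced by 100 nM tebufenozide, given compounds in a concentration series. GFP aggregates (1–25 um, 6 SD above background) counted in lysates by laser-scanning cytometry, 488 nm excitation.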
On the % scale 0 is the no-effect control and ±100 the full control effect; potency means the concentration at half of the fitted maximal effect.

| Structure (SMILES) | Potency | activity change, negative = inhibition |
| --- | --- | --- |
| CCC(C)NC(=O)CSc1c2c(nc3ccccc13)CCCC2 (configuration not stated) | inconclusive: 35.5 µM [inhibitor, single point] |  |
| Cc1cc(NC(NC(=O)c2ccco2)(C(F)(F)F)C(F)(F)F)no1 |  | inactive: 16.2% |
| O=C(O)c1ccc(N2CC3CC(C2)c2cccc(=O)n2C3)c(NC(=S)Nc2ccc(Br)cc2)c1 (configuration not stated) |  | inactive: -17.4% |
| O=C(N/N=C/c1cn(-c2ccccc2)nc1-c1cccnc1)c1ccccc1 | inconclusive: 0.708 µM [activator, single point] |  |
| Cc1ccc(O)c(C(=O)c2cc(C#N)c(=O)n(C(C)c3ccccc3)c2)c1 (configuration not stated) | inconclusive: 7.94 µM [inhibitor, single point] |  |
| CCc1cccc2c(C(=O)CCl)c[nH]c12 | inconclusive: 3.98 µM [inhibitor, single point] |  |
| CN1CCN(C2=Cc3cc(Cl)ccc3Sc3cc(F)ccc32)CC1 | inconclusive: 5.62 µM [inhibitor, single point] |  |
| COc1ccccc1C(=O)c1cc2ccc(O)cc2oc1=O | inconclusive: 1.58 µM [inhibitor, single point] |  |
| CC1CCc2c(sc3nc(CN4CCOCC4)nc(NS(=O)(=O)c4cccc([N+](=O)[O-])c4)c23)C1 (configuration not stated) | inconclusive: 35.5 µM [inhibitor, single point] |  |
| Cc1nc2c(c(C)c1C#N)C(=O)c1ccccc1-2 |  | inactive: 8.42% |
| COc1ccc(S(=O)(=O)NCCSc2ccc(Cl)cc2)cc1OC | inconclusive: 22.4 µM [inhibitor, single point] |  |
| O=S(=O)(CCc1nc2ccccc2s1)c1ccc2ccccc2c1 | inconclusive: 31.6 µM [inhibitor, single point] |  |
| CCC(C)N=Cc1c(Nc2ccccc2)nc2c(C)cccn2c1=O (configuration not stated) |  | inactive: -39.5% [at 9.22 µM] |
| COc1ccc(C(=O)Oc2c(CN3CCOCC3)cc(Cl)c3cccnc23)cc1 | inconclusive: 35.5 µM [inhibitor, single point] |  |
| OCC1CCCN(C(=S)Nc2ccc(Oc3ccccc3)cc2)C1 (configuration not stated) | inconclusive: 12.6 µM [inhibitor, single point] |  |
| CC1(C)N=C(SCC(=O)Nc2ccccc2)C(c2ccc(Cl)cc2)=N1 |  | inactive: 21.2% |
| Cc1sc2ncnc(Nc3ccccc3)c2c1C | inconclusive: 1 µM [inhibitor, single point] |  |
| COc1ccc(C(C)(C)C)cc1NC(=O)COC(=O)C(C)C | inconclusive: 11.2 µM [activator, partial curve] |  |
| Cc1ccc(-c2nc(N/N=C/c3ccncc3)c3ccccc3n2)cc1 | inconclusive: 3.98 µM [inhibitor, full curve] |  |
| Oc1[nH]c2ccccc2c1N=NC(=S)NCCc1ccccc1 | inconclusive: 22.4 µM [inhibitor, single point] |  |
| C/C(=N\NC(=O)c1cccnc1)c1c(O)cc(C)oc1=O |  | inactive: -1.24% |
| Cc1cc(=O)[nH]c(Nc2cccc(C(F)(F)F)c2)n1 | active: 11.2 µM |  |
| CS(=O)(=O)N1CCCC(C(=O)NC2CCCCCCC2)C1 (configuration not stated) |  | inactive: -9.58% |
| COc1ccc(N2CCSC2C(=O)NN)cc1 (configuration not stated) |  | inactive: -9.24% |

Pulled one by one from the list above (6):

| Structure (SMILES) | Potency | activity change, negative = inhibition |
| --- | --- | --- |
| Oc1[nH]c2ccccc2c1N=NC(=S)NCCc1ccccc1 | inconclusive: 22.4 µM [inhibitor, single point] |  |
| COc1ccc(C(=O)Oc2c(CN3CCOCC3)cc(Cl)c3cccnc23)cc1 | inconclusive: 35.5 µM [inhibitor, single point] |  |
| CCc1cccc2c(C(=O)CCl)c[nH]c12 | inconclusive: 3.98 µM [inhibitor, single point] |  |
| C/C(=N\NC(=O)c1cccnc1)c1c(O)cc(C)oc1=O |  | inactive: -1.24% |
| Cc1cc(NC(NC(=O)c2ccco2)(C(F)(F)F)C(F)(F)F)no1 |  | inactive: 16.2% |
| CCC(C)N=Cc1c(Nc2ccccc2)nc2c(C)cccn2c1=O (configuration not stated) |  | inactive: -39.5% [at 9.22 µM] |

Following part:

| Structure (SMILES) | Potency | activity change, negative = inhibition |
| --- | --- | --- |
| O=C(Nc1ccc(N=Nc2ccccc2)cc1)c1cccc(Cl)c1 | inconclusive: 11.2 µM [activator, partial curve] |  |
| CCSc1nc2ccccc2n1Cc1ccccc1F | inconclusive: 35.5 µM [inhibitor, single point] |  |
| CCOC(=O)C1=C(N)Oc2c(oc(CO)cc2=O)C1c1ccc(Cl)cc1 (configuration not stated) |  | inactive: 0.662% [at 9.22 µM] |
| O=C(CCCCn1c(=O)c2ccccc2n(Cc2ccc(F)cc2)c1=O)NCc1ccco1 | active: 1 µM |  |
| COc1ccc(CNCC(=O)Nc2ccccc2-n2cccc2)cc1 |  | inactive: 5.76% |
| COc1ccc(-n2c(=S)[nH]c3cc(C(=O)Nc4cc(OC)c(OC)c(OC)c4)ccc3c2=O)c(OC)c1 | inconclusive: 8.91 µM [inhibitor, partial curve] |  |
| Cc1cc(C)nc(Sc2ncnc(N)c2[N+](=O)[O-])n1 | active: 10 µM |  |
| Cc1cccc(OCCCCc2c(C)n[nH]c2C)c1 | inconclusive: 10 µM [inhibitor, partial curve] |  |
| O=C(Nc1ccccc1OC(=O)c1ccc(Cl)cc1)c1ccc(Cl)cc1 |  | inactive: 17.5% |
| CCOc1cc(/C=N/Nc2cc(C)nc(-n3nc(C)cc3C)n2)ccc1O | inconclusive: 6.31 µM [inhibitor, single point] |  |
| Cc1ccc(-c2nc3cnccn3c2Nc2c(C)cccc2C)o1 | inconclusive: 17.8 µM [inhibitor, single point] |  |
| CCCCCC(=O)N1CCCC(c2nc(-c3ccc(OC)cc3)no2)C1 (configuration not stated) | inconclusive: 15.8 µM [inhibitor, single point] |  |
| Cc1c(Cl)cccc1NC(CC(=O)c1ccccc1)C(=O)OCC(=O)c1cccs1 (configuration not stated) | inconclusive: 6.31 µM [activator, single point] |  |
| Cc1c(Cc2ccccc2)sc(NC(=O)/C=C/c2cccc3ccccc23)c1C(N)=O | inconclusive: 28.2 µM [inhibitor, single point] |  |
| COc1cc(/C=C/C(=O)O)cc(S(=O)(=O)NCCCC(=O)O)c1OC |  | inactive: 19.5% [at 9.22 µM] |
| O=C(NCCc1ccccc1)C1CCN(S(=O)(=O)c2ccc(-n3cnnn3)cc2)CC1 | active: 2.82 µM |  |
| COc1ccc2[nH]c(=O)c(CNC3CCCCC3)cc2c1 | inconclusive: 6.31 µM [activator, single point] |  |
| COC(=O)C1=C(C)Nc2nc(-c3ccccc3)nn2C1c1ccc(C)o1 (configuration not stated) | inconclusive: 11.2 µM [activator, partial curve] |  |
| Cc1ccc(S(=O)(=O)Nc2ccc(NC(=O)c3cccnc3)cc2)cc1 |  | inactive: -0.815% [at 9.22 µM] |
| CCCCN(CC)CCNC(=O)CN1C(=O)COc2ccc(S(=O)(=O)N3CCCC3)cc21 |  | inactive: 18.3% |
| COc1cc(/C=N/Nc2ccc(F)cc2F)cc(OC)c1O | inconclusive: 35.5 µM [activator, partial curve] |  |
| CCN(CC)S(=O)(=O)c1ccc(OC)c(NC(=O)c2cccc(C)c2[N+](=O)[O-])c1 |  | inactive: -3.35% |
| O=C(CSc1nc(-c2ccco2)cc(C(F)(F)F)n1)NCc1cccs1 | active: 15.8 µM |  |
| CCOC(=O)c1sc(=S)n(-c2ccccc2)c1C |  | inactive: 14.2% [at 9.22 µM] |

| Structure (SMILES) | Potency | activity change, negative = inhibition |
| --- | --- | --- |
| Cc1ccc(-c2cc(C(F)F)n3ncc(C(=O)Nc4cn(C)nc4C)c3n2)cc1 |  | inactive: 5.63% [at 9.22 µM] |
| CCCNC(=O)COC(=O)c1ccccc1C(=O)c1ccc(Cl)c([N+](=O)[O-])c1 | inconclusive: 20 µM [inhibitor, single point] |  |
| Cc1[nH]n(-c2ccccc2)c(=O)c1-c1cccc(Cl)c1 | inconclusive: 25.1 µM [inhibitor, single point] |  |
| COC(=O)c1cnn(-c2cc(Oc3ccccc3)ncn2)c1N |  | inactive: 5.84% |
| COc1cc(C(=O)Oc2ccccc2/C=N/NC(=O)c2ccc(Cl)cc2Cl)cc(OC)c1OC | active: 6.31 µM |  |
| COc1ccc(C(=O)O/N=C/c2c(C(F)(F)F)nn(C)c2SCc2ccccc2Cl)cc1 | active: 10 µM |  |
| COc1c(C)cc(Br)cc1C(=O)Nc1ccccc1N1CCN(C(=O)c2ccccc2)CC1 | inconclusive: 35.5 µM [inhibitor, single point] |  |
| c1ccc2c(c1)ncn2-c1ccc(-c2ccnc(-c3ccncc3)n2)cc1 | inconclusive: 1.41 µM [inhibitor, full curve, poor fit] |  |
| Cc1cc(S(=O)(=O)N2CCN(c3ccccc3C)CC2)ccc1F | inconclusive: 20 µM [inhibitor, partial curve, poor fit] |  |
| Cc1ccc(Cc2cnc(N3C(=N)SC(c4ccccc4)C3=O)s2)cc1 (configuration not stated) | inconclusive: 3.98 µM [inhibitor, single point] |  |
| CCOC(=O)c1[nH]c2c(c1C)C(=O)CC(c1ccc(OCC)c(OC)c1)C2 (configuration not stated) |  | inactive: -22.4% |
| CCSc1nnc(NC(=O)Nc2cccc(C)c2)s1 |  | inactive: 11.7% [at 9.22 µM] |
| Cc1ccc(-n2nnnc2-c2cnc(N3CCCC3)nc2C(F)(F)F)cc1 | inconclusive: 28.2 µM [inhibitor, single point] |  |
| O=C(Nc1ccc2c(c1)OCCO2)c1ccc(Br)o1 |  | inactive: 12.1% |
| Clc1ccc(SCc2cc(N3CCOCC3)nc(-c3ccccn3)n2)cc1 | inconclusive: 35.5 µM [inhibitor, single point] |  |
| Cc1ccc(C(=O)CC2SC(N)=NC2=O)cc1 (configuration not stated) | inconclusive: 1.26 µM [activator, single point] |  |
| O=C(CON=C1c2ccccc2-c2ccccc21)NC12CC3CC(CC(C3)C1)C2 | active: 11.2 µM |  |
| CC1Cc2nc(SCC(=O)N3CCCc4ccccc43)n(C)c(=O)c2S1 (configuration not stated) | inconclusive: 12.6 µM [inhibitor, partial curve] |  |
| CC1(C)CC(=O)c2c(oc3ccc(NS(=O)(=O)c4cccc5cccnc45)cc23)C1 | inconclusive: 14.1 µM [inhibitor, single point] |  |
| Cc1nc(Nc2ccc(C(=O)O)cc2)nc(Nc2ccc(C(=O)O)cc2)c1[N+](=O)[O-] |  | inactive: 13.9% |
| CC(=O)Nc1ccc(S(=O)(=O)N(Cc2ccccc2)c2ccccc2)cc1 | inconclusive: 3.98 µM [activator, full curve, poor fit] |  |
| CC(C)c1ccc2[nH]c(O)c(N=NC(=S)NCCc3ccccc3)c2c1 | inconclusive: 6.31 µM [inhibitor, single point] |  |
| O=C(Nc1ccc2nc3n(c(=O)c2c1)CCCC3)c1cc([N+](=O)[O-])ccc1F | active: 14.1 µM |  |
| CN1CCN(NC(=O)CC(C)(C)C)CC1 |  | inactive: -10.8% |
